Source: patent US20180230232A1 (VIB VZW, published 2018)
Results are given in words; binding and its absence hold for the method and conditions named. Some entries that bind do so weakly or less than the wild type.

Sequences of proteins named here, by UniProt entry; tags and fusion partners are left off. Residues count along the entry.
UniProt P56817, residues 22-457: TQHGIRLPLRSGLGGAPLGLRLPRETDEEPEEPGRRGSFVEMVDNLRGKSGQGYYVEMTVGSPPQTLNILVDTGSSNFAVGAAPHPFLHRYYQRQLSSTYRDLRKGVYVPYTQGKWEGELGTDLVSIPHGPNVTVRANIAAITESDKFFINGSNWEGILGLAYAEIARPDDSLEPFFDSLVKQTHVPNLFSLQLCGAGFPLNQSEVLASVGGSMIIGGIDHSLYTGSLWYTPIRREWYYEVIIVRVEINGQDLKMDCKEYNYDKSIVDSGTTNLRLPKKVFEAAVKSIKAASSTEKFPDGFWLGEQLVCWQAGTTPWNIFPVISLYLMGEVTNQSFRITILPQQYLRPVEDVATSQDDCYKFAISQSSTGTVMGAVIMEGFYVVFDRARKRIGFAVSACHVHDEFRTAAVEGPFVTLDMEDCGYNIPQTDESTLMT
UniProt P56818, residues 46-457: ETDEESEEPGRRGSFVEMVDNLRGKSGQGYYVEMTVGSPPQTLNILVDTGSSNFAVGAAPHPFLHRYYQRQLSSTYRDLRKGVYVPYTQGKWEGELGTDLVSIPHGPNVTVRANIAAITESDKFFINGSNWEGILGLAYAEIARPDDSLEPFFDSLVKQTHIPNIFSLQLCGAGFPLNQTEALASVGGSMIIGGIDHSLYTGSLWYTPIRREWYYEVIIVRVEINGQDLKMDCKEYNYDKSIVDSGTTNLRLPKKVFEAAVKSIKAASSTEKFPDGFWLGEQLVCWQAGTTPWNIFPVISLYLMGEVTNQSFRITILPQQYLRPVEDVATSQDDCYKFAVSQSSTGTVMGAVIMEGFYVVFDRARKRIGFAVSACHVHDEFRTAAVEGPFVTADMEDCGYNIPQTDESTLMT

Key:
[1] = target: human BACE1 ectodomain (human) (UniProt P56817); test: phage ELISA and periplasmic extract ELISA on coated BACE1 ectodomain
mouse BACE1 (mouse) = mouse BACE1 (mouse) (UniProt P56818); test: SPR (Biacore), pH 7.0 and pH 4.5

Binder | binding [1] | binding (mouse BACE1 (mouse))
NANOBODY 1B3 (Nb_1B3) (VHH, not shown: small tags and cut ends) VHH: QVQLQESGGGSVQAGGSLRLSCAASEYTDSTYYMAWFRQAPGKERGGVATLASRYDTTYYADSVKGRFTISQDRAKNTVYLQMNSLKPEDTGIYYCAASPRRPGFFPLDPSQYNYWGQGTQVTVSS | binds | 
NANOBODY 10C4 (Nb_10C4) (VHH, from the dromedary libraries; purified from pHEN6; not shown: C-terminal his6-tag (pHEN6)) VHH: QVQLQESGGGSVQAGGFLRLSCAASGYTYSTCSMAWYRQAPGKERELVSSIRNDGSTAYADSVKGRFTISQDNAKNTVYLQMNSLKPEDTAMYYCNIRIGVGPGGTCSIYAPYWGEGTQVTVSS | binds | binds
NANOBODY 4A2 (Nb_4A2) (VHH, from the llama library; purified from pHEN6; not shown: C-terminal his6-tag (pHEN6)) VHH: QVQLQESGGGLVQPGGSLRLSCAASGFTFETQYMTWVRQAPGKGPEYVSSINSGGTIKYYANSSVKGRFTISRDNAKNTLYLQMNNLRPEDTAIYYCQLGQWAGVGAASSRGQGTQVTVSS | binds | binds
NANOBODY B9 (Nb_B9) (VHH, dromedary VHH; his-tagged from E. coli; HA-tagged periplasmic extract in the ELISA screen; also called VHH B9; not shown: C-terminal his6-tag (pHEN6)) VHH: DVQLQESGGGSVQAGGSLRLSCAASEYTYGYCSMGWYRQAPGKERELVSTITSDGSTSYVDSVKGRFTISQDNAKNTVYLQMNSLKPEDTAKYYCYTKTCANKLGAKFISWGQGTQVTVSS |  | binds
